The text below walks through data of EP2392597B1.

Chains of the proteins cited; added tags and fusions are not shown. Lines headed by an entry give the natural chain unless they say otherwise; changes in a name come on top.
UniProt Q9NPF7: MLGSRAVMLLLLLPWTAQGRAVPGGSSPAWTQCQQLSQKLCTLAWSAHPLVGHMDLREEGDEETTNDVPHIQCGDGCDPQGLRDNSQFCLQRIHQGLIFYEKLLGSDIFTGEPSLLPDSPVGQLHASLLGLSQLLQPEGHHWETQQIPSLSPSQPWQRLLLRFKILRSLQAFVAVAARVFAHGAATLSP

B1: anti-IL-23p19 Fab/scFv cluster 33 (Fab, V domains shown)
VH: EVQLLESGGGLVQPGGSLRLSCAASGFTFSTYWMEWVRQAPGKGLEWVSSIVSSGGPTMYADSVKGRFTISRDNSKNTFYLQMNSLRAEDTAVYYCARAREISIFGVVKDLDIWGQGTMVTVSS
VL: DIQMTQSPGTLSVSPGERATLSCRASQSVSNKLAWYQQKPGQAPRLLIYGASTRATGIPARFSGSGSGTEFTLTITSLQSEDFAVYYCQQRINWPLTFGGGTKVEIK
B2: anti-IL-23p19 Fab/scFv cluster 273 (Fab, V domains shown)
VH: EVQLLESGGGLVQPGGSLRLSCAASGFTFSRYVMGWVRQAPGKGLEWVSYISPSGGWTWYADFVKGRFTISRDNSKNTLYLQMNSLRAEDTAVYYCARVHDAFDIWGQGTMVTVSS
VL: NIQMTQSPSSVSASVGDRVTITCRASQGVSTWLAWYQQKPGKAPKLLIYAASSLQSGVPSRFSGSGSGTDFTLTISSLQPEDFATYYCLQAYNFPLTFGGGTKVEIE
B3: anti-IL-23p19 Fab/scFv cluster 36 (Fab, V domains shown)
VH: B2 VH with R31H
VL: B2 VL with N1D, K103E, E107K
B4: anti-IL-23p19 Fab/scFv cluster 276 (Fab, V domains shown)
VH: B2 VH
VL: B2 VL with E107K
B5: anti-IL-23p19 Fab/scFv cluster 277 (Fab, V domains shown)
VH: B2 VH with R31H, S116R
VL: B2 VL with E107K
B6: anti-IL-23p19 Fab/scFv cluster 266 (Fab, V domains shown)
VH: EVQLLESGGGLVQPGGSLRLSCAASGFTFSVYTMYWVRQAPGKGLEWVSWISPSGGSTVYADSVKGRFTISRDNSKNTLYLQMNSLRAEDTAVYYCAASRTTPGGFDVWGQGTMVTVSS
VL: DIQMTQSPVTLSLSPGERATLSCRASQSYISYLAWYQQKSGQAPRLLIYDTSNRATGIPARFSGSGSGSDFTLTINSLEPEDVAVYYCQQRSNWPPEFTFGQGTRLEIK
B7: anti-IL-23p19 Fab/scFv cluster 28 (Fab, V domains shown)
VH: EVQLLESGGGLVQPGGSLRLSCAASGFTFSLYKMGWVRQAPGKGLEWVSYIWSSGGWTRYADSVKGRFTISRDNSKNTLYLQMNSLRAEDTAVYYCARAGGYNSPLSYWGQGTLVTVSS
VL: DIQMTQSPSSLPASVGDRVAITCRASQSISSSYLNWYQHKPGKAPKLLIYAASNLNSGVPSRFSGSGSGTDFTLTISSLQPDDFATYYCQESHSASLTFGGGTKVEVK
B8: anti-IL-23p19 Fab/scFv cluster 26 (Fab, V domains shown)
VH: EVQLLESGGGLVQPGGSLRLSCAASGFTFSRYGMHWVRQAPGKGLEWVSYIVSSGGYTEYADSVKGRFTISRDNSKNTLYLQMNSLRAEDTAVYYCTTGIAVARYWGQGTLVTVSS
VL: DIQMTQSPGTLSLSPGERATLSCRASQSVSSRYLAWYQQKPGQAPRLLIYGASSRATGIPDRFSGSGSGTDFTLTISRLEAEDFAVYYCQQYSTSPYTFGQGTKLEIK
B9: anti-IL-23p19 Fab/scFv cluster 264 (Fab, V domains shown)
VH: EVQLLESGGGLVQPGGSLRLSCAASGFTFSDYKMMWVRQAPGKGLEWVSSIGSSGGPTWYADSVKGRFTISRDNSKNTLYLQMNSLRAEDTAVYYCARLAYSSGWYDDYWGQGTLVTVSS
VL: DIQMTQSPATLSLSPGERATLSCRASQSISSYLAWYQQKPGQAPRLLIYHASNRATGIPARFSGSGSGTDFTLTITSLEPEDFAVYYCQQRSNSPPWTFGQGTKVEMK
B10: anti-IL-23p19 Fab/scFv cluster 279 (Fab, V domains shown)
VH: EVQLLESGGGLVQPGGSLRLSCAASGFTFSAYGMDWVRQAPGKGLEWVSSISPSGGQTKYADSVKGRFTISRDNSKNTLYLQMNSLRAEDTAVYYCAKDLGGGYYYYYGMDVWGQGTLVTVSS
VL: QYELTQPASVSGSPGQSITISCTGTSSDVGGYNYVSWYQQHPGKAPKLMIYEVSNRPSGVSNRFSGSKSGNTASLTISGLQAEDEADYYCSSYTSSSTLFYVFGTGTKVTVR
B11: anti-IL-23p19 Fab/scFv cluster 283 (Fab, V domains shown)
VH: B10 VH
VL: B10 VL with S9P, R112L
B12: anti-IL-23p19 Fab/scFv cluster 304 (Fab, V domains shown)
VH: B10 VH with L118T
VL: B10 VL with R112P
B13: anti-IL-23p19 Fab/scFv cluster 305 (VH SEQ ID NO: 267) (Fab, V domains shown)
VH: B10 VH with Q57R
VL: B10 VL with R112L
B14: anti-IL-23p19 Fab/scFv cluster 284 (Fab, V domains shown)
VH: B10 VH with K43R
VL: B10 VL with R112L
B15: anti-IL-23p19 Fab/scFv cluster 29 (Fab, V domains shown)
VH: B10 VH
VL: B10 VL with R112L
B16: anti-IL-23p19 Fab/scFv cluster 288 (Fab, V domains shown)
VH: B10 VH with N84K
VL: B10 VL with R112L
B17: anti-IL-23p19 Fab/scFv cluster 267 (Fab, V domains shown)
VH: EVQLLESGGGLVQPGGSLRLSCAASGFTFSEYAMEWVRQAPGKGLEWVSYIYSSGGFTIYADSVKGRFTISRDNSKNTLYLQMNSLRAEDTAVYYCARDGSDAFDIWGQGTMVTVSS
VL: DIQMTQSPSSVSASVGDRVTITCRASQDINIWLAWYQLKPGEAPKLLIHSASTLQSGVPSRFSGSGSGTDFIFTISSLQPEDYATYHCQQINTFPPTFGGGTKVDIK
B18: anti-IL-23p19 Fab/scFv cluster 27 (Fab, V domains shown)
VH: B17 VH with E31A, A33S, E35T, Y50G, I59W, D99V, S101L, D102W
VL: DIQMTQSPSSLSASVGDRVTITCRASQSISGYLHWYQQKPGKAPNLLIFATSNLHSGVPSRFSGSRSGTDFTLTISSLQPEDFATYFCQQSFSTPPTFGHGTRLEIK
B19: anti-IL-23p19 Fab/scFv cluster 265 (Fab, V domains shown)
VH: EVQLLESGGGLVQPGGSLRLSCAASGFTFSAYKMSWVRQAPGKGLEWVSSISPSGGGTHYADSVKGRFTISRDNSKNTLYLQMNSLRAEDTALYYCAKDMGGIAARQAGGFGYWGQGTLVTVSS
VL: DIQMTQSPATLSLSPGERATLSCRASQSIGRYLAWYQQKPGQAPRLLIYDASNRATGIPARFSGSGSGTDFTLTISSLEPEDFAVYYCQQRSKWPPTFGQGTKVEIK

Residue numbers refer to the chain shown, from its start. No constants are given. Whether binding was seen depends on the method and setting. Some binding calls cover weakened binding; strength is not graded here.

The target of the assay is human p19 subunit of IL-23 (human) (UniProt Q9NPF7). Briefly: phage display screening.
On to B1, for which the binding entry is given as “binds”.

As to B2, the binding result is listed as “binds”.

B3: the binding entry is “binds”.

Regarding B4, the binding result was “binds”.

For the molecule B5, the binding result is “binds”.

Consider B6, for which the binding result is “binds”.

In the case of B7, the binding entry is “binds”.

On to B8, for which the binding result is “binds”.

As to B9, the binding entry is reported as “binds”.

Turning to B10, the binding result is recorded as “binds”.

In the case of B11, the binding entry is listed as “binds”.

B12: the binding entry is recorded as “binds”.

For the molecule B13, the binding entry is “binds”.

With B14, the binding result is “binds”.

On to B15, for which the binding entry is reported as “binds”.

Take B16: the binding result is “binds”.

As for B17, the binding entry is “binds”.

B18: the binding entry is listed as “binds”.

For the molecule B19, the binding entry is “binds”.
